Screen size: about 330,000 compounds; about 7,700 (2.3%) were called active. The shares of active, inactive and inconclusive entries below differ from those in the screen. The call rests on the fitted dose curve; in most records, active means well fitted inhibition curve with a large enough effect; inconclusive means small, poorly fitted or top-dose-only effect, or effect the other way; inactive means flat fitted curve, though single readings scatter. Potencies of inconclusive entries are doubtful fits and often do not repeat.
experiment: qHTS screen for small molecules that inhibit ELG1-dependent DNA repair in human embryonic kidney (HEK293T) cells expressing luciferase-tagged ELG1; conditions: HEK293T ELG1-luciferase reporter, luminescence, 16 h, DNA damage induced by 5-fluorouridine; activity change, negative = inhibition: at 46.1 µM (top of the series); further: nearly all actives have a fitted effect of over 55% in size
Summary of the method: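 Luminescence from the luciferase reporter, measured 30 min after ONE-Glo reagent at room temperature, was the read-out. Beforehand, 2,000 cells per well were exposed for 16 hr at 37 °C to 5-fluorouridine together with compound or vehicle.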
On the % scale 0 is the no-effect control and ±100 the full control effect; potency means the concentration at half of the fitted maximal effect.

Row | Structure (SMILES) | Potency | activity change, negative = inhibition
1 | COc1ccc(-c2csc(C)n2)cc1OC | inconclusive: 29.1 µM [activator, single point] | 
2 | CC1CCCN(S(=O)(=O)c2ccc(C(=O)Nc3ccccc3-c3nc4ccccc4[nH]3)cc2)C1 (stereo not given) | inconclusive: 8.2 µM [inhibitor, partial curve, poor fit] | 
3 | CCCOc1ccc(N2CC(C(=O)NCCc3ccc(OC)c(OC)c3)CC2=O)cc1 (stereo not given) | inactive | 
4 | COc1ccc(CCN2C(=O)c3[nH]nc(-c4ccccc4O)c3C2c2ccc(C)cc2)cc1OC (stereo not given) | inconclusive: 7.94 µM [inhibitor, partial curve, poor fit] | 
5 | Cc1cc(C)c(NS(=O)(=O)c2c(C(=O)N3CCOCC3)c(C)n(C)c2C)c(C)c1 | inconclusive: 23.1 µM [activator, partial curve, poor fit] | 
6 | COc1cc(C(=O)Oc2ccccc2/C=N/NC(=O)c2ccc(Cl)cc2Cl)cc(OC)c1OC | inconclusive: 7.31 µM [inhibitor, partial curve] | 
7 | CCOC(=O)c1c(C)oc2ccc(OC(=O)N3CCOCC3)cc12 | inconclusive: 20.6 µM [inhibitor, single point] | 
8 | Cc1nc(Oc2ccccc2)c2ccsc2n1 | inconclusive: 0.231 µM [inhibitor, single point] | 
9 | Cc1ccc(CCCOC(=O)CN2CCCCC2)cc1 | inactive | 
10 | Cc1ccc2nsnc2c1S(=O)(=O)N1CCN(Cc2ccc3c(c2)OCO3)CC1 | inconclusive: 20.6 µM [inhibitor, single point] | 
11 | OC[C@@H]1[C@@H](c2ccccc2)C(c2ccccc2)=NN1c1ccccc1 | inconclusive: 14.6 µM [activator, partial curve, poor fit] | 
12 | COC(=O)c1cnn(-c2cc(Oc3ccccc3)ncn2)c1N | inconclusive: 16.4 µM [activator, partial curve] | 
13 | CCOC(=O)CSc1nc2cc(OC)ccc2cc1C#N | inconclusive: 1.46 µM [activator, full curve] | 
14 | Cc1ccc(-n2c(C)cc(C(=O)COC(=O)C3=NNC(=O)CC3)c2C)cc1 | inactive | 
15 | CN(C)N1C(N)=C(C#N)C(c2ccc3c(c2)OCO3)C2=C1CC(C)(C)CC2=O (stereo not given) | inactive | 
16 | O=c1cc(CO)oc(C(Nc2ccccn2)c2ccccc2Cl)c1O (stereo not given) | inactive | 
17 | Cc1ccc(-n2nnnc2-c2cnc(N3CCCC3)nc2C(F)(F)F)cc1 | inactive | 
18 | COCCn1c(SCC(=O)N2CC(=O)Nc3ccccc32)nc2ccccc2c1=O | inconclusive: 4.11 µM [inhibitor, single point] | 
19 | Cc1ccc(Cc2cnc(N3C(=N)SC(c4ccccc4)C3=O)s2)cc1 (stereo not given) | inconclusive: 14.6 µM [activator, partial curve, poor fit] | 
20 | CCc1ccc2c(CN(C)Cc3ccc(OC(F)F)c(OC)c3)cc(=O)oc2c1 | inconclusive: 23.1 µM [inhibitor, single point] | 
21 | CCC(=O)N1CCc2cc(S(=O)(=O)CCC(=O)Nc3ccc(C)cn3)ccc21 | inactive | 
22 | CCSc1nnc(NC(=O)Nc2cccc(C)c2)s1 | inconclusive: 3.26 µM [activator, single point] | 
23 | c1ccc2c(c1)ncn2-c1ccc(-c2ccnc(-c3ccncc3)n2)cc1 | inactive | 
24 | Cc1nn(-c2ccccc2)c(C)c1/C=N/NC(=O)c1cc(O)cc(O)c1 | inactive | 

Random excerpt: 4 records from the list
Row | Structure (SMILES) | Potency | activity change, negative = inhibition
4 | COc1ccc(CCN2C(=O)c3[nH]nc(-c4ccccc4O)c3C2c2ccc(C)cc2)cc1OC (stereo not given) | inconclusive: 7.94 µM [inhibitor, partial curve, poor fit] | 
22 | CCSc1nnc(NC(=O)Nc2cccc(C)c2)s1 | inconclusive: 3.26 µM [activator, single point] | 
15 | CN(C)N1C(N)=C(C#N)C(c2ccc3c(c2)OCO3)C2=C1CC(C)(C)CC2=O (stereo not given) | inactive | 
1 | COc1ccc(-c2csc(C)n2)cc1OC | inconclusive: 29.1 µM [activator, single point] | 

More entries follow:

Row | Structure (SMILES) | Potency | activity change, negative = inhibition
25 | CCOC(=O)c1ccc(OCc2c(C)noc2C)cc1 | inconclusive: 29.1 µM [activator, partial curve, poor fit] | 
26 | CCOc1ccccc1NC(=O)CSc1nc2c(c(=O)n1C)SC(C)C2 (stereo not given) | inconclusive: 16.4 µM [inhibitor, single point] | 
27 | Cc1cc(C(=O)Nc2cccc(C(=O)O)c2)c(C)o1 | inactive | 
28 | Cc1c(Br)c(C(=O)NNC(=O)c2ccc(C(C)(C)C)cc2)nn1C | inconclusive: 20.6 µM [activator, partial curve, poor fit] | 
29 | Cc1[nH]c(-c2ccc(F)cc2)cc1C(=O)N1CCN(c2ccccc2F)CC1 | inconclusive: 29.1 µM [inhibitor, single point] | 
30 | CCOC(=O)c1c[nH]n(-c2ccccc2)c1=O | inconclusive: 18.3 µM [activator, partial curve] | 
31 | Cc1ccc(C(=O)CC2SC(N)=NC2=O)cc1 (stereo not given) | inconclusive: 18.4 µM [activator, single point] | 
32 | O=C(NN=C1CCN(Cc2ccccc2)CC1)c1ccccc1O | inactive | 
33 | Cc1noc(C)c1C(=O)N1CCC(C(=O)c2ccccc2)CC1 | inactive | 
34 | C=CCOc1ccc(CNc2ccc3[nH]c(=O)[nH]c3c2)cc1OC | inactive | 
35 | Cc1ccc(CN2C(=O)C(=O)c3cc(C)ccc32)cc1 | inconclusive: 10.3 µM [activator, partial curve] | 
36 | O=C(c1ccc(F)cc1)C1CCN(C(=S)Nc2ccccc2Cl)CC1 | inconclusive: 20.6 µM [inhibitor, single point] | 
37 | CCC(C)(C)C1CCc2[nH]nc(C(=O)NCCN3CCOCC3)c2C1 (stereo not given) | inactive | 
38 | C/C(=N\NC(=O)c1c(C)nc2ccccn12)c1ccc(O)cc1O | active: 2.91 µM | 
39 | COc1ccccc1NC(=O)C(=O)NCCCN1CCCC1=O | inconclusive: 23.1 µM [activator, single point] | 
40 | Clc1ccc(SCc2cc(N3CCOCC3)nc(-c3ccccn3)n2)cc1 | inconclusive: 18.3 µM [inhibitor, single point] | 
41 | NS(=O)(=O)c1ccc(CCNC(=O)CC(NC(=O)c2ccccc2Cl)c2ccccc2)cc1 (stereo not given) | inconclusive: 13 µM [activator, partial curve, poor fit] | 
42 | O=C(Nc1ccc2c(c1)OCCO2)c1ccc(Br)o1 | inconclusive: 2.91 µM [activator, full curve] | 
43 | Cc1ccc(S(=O)(=O)n2nc(C)c(Br)c2C)c(C)c1C | inconclusive: 0.501 µM [activator, full curve, poor fit] | 
44 | COc1ccc(N(C(C)C(=O)Nc2ccc(S(=O)(=O)N3CCCCC3)cc2)S(C)(=O)=O)cc1 (stereo not given) | inactive | 
45 | CCNc1nnc(-c2ccncc2)s1 | inconclusive: 1.16 µM [activator, single point] | 
46 | O=C(/C=C/c1ccc(F)cc1)Nc1ccc(S(=O)(=O)Nc2ncccn2)cc1 | inconclusive: 0.517 µM [inhibitor, partial curve, poor fit] | 
47 | FC(F)(F)c1ccnc(N2CCN(Cc3cnc(-c4ccccc4)[nH]3)CC2)c1 |  | inconclusive: 52.2% [activator]
48 | COc1ccc(Nc2nc(-c3cccs3)cs2)cc1 | inconclusive: 1.64 µM [activator, full curve] | 

Row | Structure (SMILES) | Potency | activity change, negative = inhibition
49 | COCCN1Cc2cccc(C(=O)N3CCN(c4cc(C)ccc4C)CC3)c2C1=O | inactive | 
50 | CC(NC(=O)C12CC3CC(C)(CC(C)(C3)C1)C2)c1ccncc1 (stereo not given) | inactive | 
51 | CCN(CCn1cccn1)C(=O)CCc1nnc(CCCc2ccccc2)o1 | inconclusive: 14.6 µM [activator, partial curve] | 
52 | Cc1ccc(-c2csc(=S)[nH]2)cc1 | inconclusive: 18.3 µM [activator, partial curve] | 
53 | Cc1noc(C)c1CSCC(=O)Nc1cc(Cl)ccc1N1CCOCC1 | inconclusive: 25.9 µM [activator, partial curve, poor fit] | 
54 | COc1ccc(S(=O)(=O)N(CCCN2CCOCC2)Cc2cccc3ccccc23)cc1 | inconclusive: 14.6 µM [inhibitor, partial curve, poor fit] | 
55 | CCOC(=O)C1CCN(C2=C(NS(=O)(=O)c3ccc(Cl)cc3)C(=O)c3ccccc3C2=O)CC1 | inconclusive: 14.6 µM [inhibitor, partial curve, poor fit] | 
56 | CCC1CCCCN1Cc1nc2c(c(=O)n(C)c(=O)n2C)n1CCCc1ccccc1 (stereo not given) | inconclusive: 20.6 µM [inhibitor, single point] | 
57 | O=C(c1c[nH]c(C(=O)C(Cl)(Cl)Cl)c1)c1ccc(F)cc1F | inactive | 
58 | NC(=O)c1ccsc1NC(=O)CN1C(=O)NC2(CCCC2)C1=O | inconclusive: 20.6 µM [activator, partial curve, poor fit] | 
59 | O=C(c1ccccc1Br)N(Cc1ccccc1)c1ccccc1 | inconclusive: 8.2 µM [inhibitor, partial curve, poor fit] | 
60 | CCOC(=O)c1[nH]c(CSc2nnnn2-c2ccccc2C)c(C(=O)OCC)c1C | inconclusive: 25.9 µM [inhibitor, partial curve, poor fit] | 
61 | Cc1ccc(C(=O)N/C(=C/c2ccc(-c3ccc(Br)cc3)o2)C(=O)NC2CCS(=O)(=O)C2)cc1 (stereo not given) | inactive | 
62 | Cc1ccc(C)c(NC(=O)N2CCc3ccccc3C2)c1 | inconclusive: 25.9 µM [activator, partial curve] | 
63 | COc1ccc(CCNC(=O)c2oc3ccccc3c2C)cc1 | inactive | 
64 | Cc1cc(/C=N/NC(N)=S)c(C)n1-c1cccc(Cl)c1 | inactive | 
65 | NNS(=O)(=O)c1ccc(Cc2ncc(C(F)(F)F)cc2Cl)s1 | inactive | 
66 | CC1Cc2nc(SCC(=O)N3CCCc4ccccc43)n(C)c(=O)c2S1 (stereo not given) | active: 23.1 µM | 
67 | COc1ccccc1CNC(=O)CNCCc1ccc(OC)c(OC)c1 | inactive | 
68 | Cc1ccc2oc(C(=O)NCC(c3ccco3)N(C)C)c(C)c2c1 (stereo not given) | inconclusive: 20.6 µM [activator, partial curve] | 
69 | Cc1ccc(C(=O)NCC(=O)NCCc2ccc(S(N)(=O)=O)cc2)s1 | inconclusive: 23.1 µM [activator, single point] | 
70 | Cc1ccc(S(=O)(=O)Nc2cnn(-c3ccccc3)c(=O)c2Cl)cc1 | inconclusive: 25.9 µM [inhibitor, single point] | 

Source: PubChem BioAssay AID504467 (National Center for Advancing Translational Sciences (NCATS), 2011)
